Assay results published in patent US20080254027A1 (published 2008).

Target: cynomolgus monkey CD5 (cynomolgus monkey)
Experiment: flow cytometry, labeled antibody on cynomolgus monkey blood leukocytes/PBMCs

B1: murine anti-CD5 antibody 5D7 (antibody, V domains shown)
VH: QVTLKESGPGILKPSQTLSLTCSFSGFSLSTSGMGVGWIRQPSGKGLEWLAHIWWDDDVYYNPSLKNQLTISKDASRDQVFLKITNLDTADTATYYCVRRRATGTGFDYWGQGTTLTVSS
VL: NIVMTQSHKFMSTSVGDRVSIACKASQDVGTAVAWYQQKPGQSPKLLIYWTSTRHTGVPDRFTGSGSGTDFTLTITNVQSEDLADYFCHQYNSYNTFGSGTRLELK
binding: binds

Results are given in words; binding and its absence hold for the method and conditions named. Binding calls can cover weak binding; strength is not graded here.
